In all, about 53,000 sequences went through this assay and about 3,700 (7%) were called active.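 The calls were made as follows: active = gene knockdowns whose robust z-score for IL-1 alpha signal is at least 2 or at most -2, so actives lie on both sides; inactive = the rest.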 The list shows a part of the results.

The experiment in a line: Components of the Cytosolic LPS Sensing Pathway: Gene Identification via Genome-wide siRNA Screen.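 Also: robust z of the log signal after scaling to non-targeting control siRNA wells of the plate.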 As to conditions: RAW264.7 macrophages, IL-1a HTRF, actives lie on both sides, screened at 100 nM (by protocol), cells primed 5 h with Pam3CSK4 first. The method in brief:
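RAW264.7; siRNA 100 nM final, RNAiMAX, 48h 37 degrees C; Pam3CSK4 5 h; LipidA + TransIT-TKO 24 h; IL-1a HTRF; CellTiter-Glo viability; robust z vs negative-control median.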
On the technique in general: Time-resolved FRET reads energy transfer from a long-lived donor to a nearby acceptor.
Turning to CCACCAGAAUCCUAACACATT against Nucb2, the z-score is active: 2.55.

Turning to GCUGCGUGUGAUUGAACCCTT against Coro2b, the z-score is inactive: 0.939.

On to CCAUUGACUCAGUUAAAACTT against Gipc2, for which the z-score is inactive: 0.453.

As to GCUACAUUUCACGACUGCGTT against Dpm3, the z-score was inactive: 0.314.

Regarding GGCCUUCCGCAUUUUAUCATT against Zfp729a, the z-score was active: 2.43.

As for GCAGAUCUUGACUUGUCCATT against Orc6, the z-score was inactive: -0.852.

GGAUAAAAGUCGAAAAACATT against Mcpt1: the z-score was inactive: 0.246.

For the sequence CCUUGCACUUACCGCUCCUTT against Gm4792, the z-score is inactive: 0.945.

In the case of GGAUGUGCAAGGAAUCUCATT against Spint1, the z-score is inactive: 0.741.

In the case of CGGAUUCACAAGAACACCUTT against Pramel12, the z-score is inactive: -0.157.

Turning to CCACAUCUGAGACUAUUCATT against Crhr1, the z-score is active: 2.46.

As to GGACAUUGACGCAUAGGGATT against Arsa, the z-score was inactive: -0.232.

Regarding GGAUAUGUUUGGUUAUUUCTT against Acbd4, the z-score is inactive: -0.0997.

Consider GGGAUAAAACUCAAUAGUATT against BC043934, for which the z-score is inactive: -0.529.

On to GGGACUGGAACAAUAGAGGTT against BC030500, for which the z-score was inactive: 0.626.

Take GGUGCUUCACGUCGAUUACTT against Tdrd6: the z-score was inactive: -1.25.

As to GGCCAUGUAUGGAGAUUACTT against Wfdc21, the z-score was inactive: -0.0472.

On to GGCAAAACUGUCGAGGUCCTT against Uck1, for which the z-score was inactive: 1.85.

In the case of GGCUAUUAGAAGGAAAACUTT against Olfr8, the z-score was inactive: 0.864.

As for CGCAAUUUGAAUAUGCCUGTT against Fis1, the z-score was inactive: 0.142.

GGAAGUGGGUAGCAACCAATT against Fam166b: the z-score is inactive: -0.495.

Regarding GCUCAUAAAAUGGCUACUGTT against Bex4, the z-score was inactive: 0.149.

GGAAAGUCACUCCUUAUAUTT against Gen1: the z-score is inactive: 0.361.

Regarding GGCCUUCACUGAUGAAUGUTT against Pramel32, the z-score is active: -2.21.

For the sequence CCACUUAUAACUCAUAGUUTT against Ugt2b34, the z-score is inactive: 0.0725.

For the sequence GCCCAUACUUCCUCUUUGATT against Npsr1, the z-score is inactive: 0.397.

Consider GGUUCUCGGUAAAUCCUGCTT against Slc35b1, for which the z-score was inactive: -1.07.

With GGAACAGAAACUAUUUAGATT against Zfp189, the z-score is inactive: 0.824.

Consider GCUUCUUGAUGCUACUCAATT against Acap1, for which the z-score was inactive: -1.96.

Take GGCUGUAUUCAUGACAACCTT against Caskin1: the z-score is inactive: 0.898.

On to CCAAACACGACGUGAAGGUTT against Ubfd1, for which the z-score is inactive: 0.993.

Turning to GGAAAUAUCCAAGAAUCCCTT against Bbs4, the z-score was inactive: -0.0724.

On to GGACAUCACGAGCAUUUCATT against Faim2, for which the z-score was inactive: -1.6.

Take CGUAGAAAUCCCUCAUUUCTT against Olfr857: the z-score was inactive: 0.221.

Take GGUUAAAUGUCGUUUAUACTT against Rasa3: the z-score is inactive: 0.308.

With GGUCAUUGGUAAUUUUACATT against Clip1, the z-score was inactive: 0.41.

Regarding CCGAUGUCGCUGUAAUUGGTT against Acsf3, the z-score was inactive: 0.0443.

GGUAAUGGGACUUGGUAGGTT against Olfr1338: the z-score was inactive: -0.056.

For GGAAAGUGCCAUGAAGACCTT against Dbi, the z-score was inactive: -1.42.

For the sequence CCUAAGCCCUCUAAGGCAATT against Pik3r2, the z-score is inactive: -0.753.

On to GGUCCAGUUGGAGAUGACATT against Ube2d3, for which the z-score is inactive: -1.04.

For the sequence GCGUGGAUUACAUUUCUCUTT against Depdc1a, the z-score is inactive: 0.392.

Consider GAAUGUUCACUGUUGGAUUTT against Olfr622, for which the z-score was inactive: 0.154.

With AAUGCUCAGAAAGAAUAACTT against Sprr2e, the z-score is inactive: -0.31.

With GGCCCGUCACAUGAAGAAGTT against Ip6k3, the z-score is inactive: 0.238.

Turning to GGUUAAGUCCCUAGGACAUTT against Blzf1, the z-score is inactive: 0.998.

Take GGCAAAUGGGUUUUCUGCATT against Jam2: the z-score is inactive: -1.08.

Take GCAAAUAUAAAACUAGAGCTT against Zfp62: the z-score was inactive: -0.227.

Turning to GCCAAAAUCAUGGUGGAGATT against Mrgpra1, the z-score is inactive: -1.38.

With GGAAAUGAAGGAACAUUACTT against Csmd1, the z-score was inactive: 1.59.

Consider GGGAGGAUGUGACCUUUGATT against Tbc1d13, for which the z-score is inactive: -0.491.

With GGAGAGUUCUGUUUAGUUATT against Cul5, the z-score was inactive: 0.114.

GAACGACAACCCGAUAAUGTT against Ttc9c: the z-score was inactive: -0.141.

Regarding CCAUCACCGAAGUAAAAAATT against Tmsb15a, the z-score is inactive: -0.622.

As for GGACUCCAUACCACCAAUATT against Vmn2r29, the z-score was inactive: 0.576.

Consider “GGCCAGUCUGGGAUUUUUGTT against 1700084P21Rik”, for which the z-score is inactive: 0.683.

As to CGUCCUGUCGGUAACAUUATT against Aff1, the z-score was inactive: -0.417.

GGAGAUUAUUACUUGAUGGTT against Exd2: the z-score was inactive: 1.09.

As to GGCCAUUUGUAUGUGCACCTT against Tgfbr1, the z-score was inactive: -0.806.

On to GGAACCAACAGAGAAAACUTT against Hr, for which the z-score is inactive: 0.317.

Turning to GCGGUGUGCUGGAUAAUUCTT against Vit, the z-score is inactive: -1.63.

Take GCAAGUGUCUUGUCCCAGGTT against Adgra1: the z-score is inactive: 0.348.

As to GGUCAAGAAAUGGAAGCUGTT against Cbarp, the z-score is inactive: -1.25.

Regarding GCUAUACAAAGGCUACUCUTT against Hectd3, the z-score is inactive: 0.379.

Turning to GCAGAACAUCCGUUCUCAGTT against Pih1d1, the z-score was inactive: -1.85.

On to GGCCAUGAACUUUGAAGAGTT against Uap1, for which the z-score was inactive: 1.4.

On to GCAAGGUCCUUAACGGCAATT against Inpp1, for which the z-score is inactive: -0.276.

Take GGAGACUACUUUGUGUUUUTT against Ermp1: the z-score is inactive: 0.933.

For GCUGGGAUGGUAUCGUUUCTT against Ripk2, the z-score is inactive: 0.559.

In the case of GCCUUUUUAACCAACACAUTT against Gphn, the z-score is inactive: -0.594.

For the sequence GCCGAGUUACAUCGGUGAUTT against Nup93, the z-score is inactive: 1.64.

As for GGAUGAGGCGAUUGAGAUUTT against Clic6, the z-score was inactive: -1.05.

Consider GGUGAUAACAAUGUCCCUUTT against Lce1f, for which the z-score was inactive: -1.08.

As for GUUGAGGAUAACAUUGAACTT against Trp53rka, the z-score is inactive: -0.0336.

As for CCAAAUGACUAGCACCAGUTT against Arl5c, the z-score was active: -2.22.

In the case of GGCAUCUGAACAGGCAGACTT against Acvrl1, the z-score is inactive: -0.94.

GGUGAUUGGUGUAAAAUCUTT against Gdi2: the z-score was inactive: -1.15.

For the sequence GUGUUCAGUAUGCUGGCAGTT against Klra6, the z-score was inactive: 1.03.

As for GGAAAAAAUGAACAAGACATT against Dele1, the z-score is inactive: 0.959.

For GCUUCAACCCGGUCACACUTT against Kif6, the z-score was active: 2.81.

Regarding CGUCUCCAUAGAUCUAGAUTT against Creb3, the z-score is inactive: -0.748.

For GGGAUGAGUCUUUAAAAUCTT against Fam228a, the z-score was inactive: 0.604.

GGUGUCAUCCUUUACAGUUTT against Ate1: the z-score is inactive: 1.71.

For the sequence GGCCUAAGGACAAUUAUUUTT against Lrrc19, the z-score was inactive: 1.31.

Consider GCAUCGAAAAUCUUUCCAATT against Fibcd1, for which the z-score was inactive: 1.6.

Turning to UCUACCAUCUUUGCCUACCTT against Olfr1182, the z-score is inactive: 0.475.

As to GCGGAAUUGGAAAAUGCCGTT against Hbs1l, the z-score is inactive: 0.283.

Take GGCUAAAUGCCGAUGUACUTT against Gapvd1: the z-score was active: 2.08.

In the case of GGAACUCAGAGGUGAAAGCTT against Olfr70, the z-score was inactive: 0.516.

With CCUCCUCUCCUAAAUGCCUTT against Llcfc1, the z-score is inactive: -1.23.

GCCAGUCAUGCCUAUUUUCTT against Zmym6: the z-score was inactive: -0.528.

Turning to “GCUAACACUGCGCUUGGAATT against 1700067K01Rik”, the z-score was inactive: -1.39.

As to GCUCGUACACAAUGAACACTT against Jam2, the z-score was inactive: -0.0132.

In the case of GGAGAGGUAAAAAUGUUGUTT against Dnaja1, the z-score is inactive: 1.16.

Turning to GGCAUUCCUUAACUACUACTT against Lbp, the z-score was inactive: -0.38.

On to CCUAGAGCUUUUUAUAACATT against Septin7, for which the z-score is inactive: 1.06.

Turning to GGAUGUUUGGACAAUCUAUTT against Itga4, the z-score was inactive: 0.634.

As to GCUUGUAUGAGAUUACCUATT against Ttc1, the z-score is inactive: 1.19.

For the sequence CCUUCUAUUCACUUUACCATT against Vmn1r87, the z-score was inactive: -0.907.

With GCACAAGUAUUCUCAAAUGTT against Adcy8, the z-score was inactive: 0.593.

GGCAUGAUCAGCACAUCACTT against Rpap1: the z-score was inactive: 0.578.

For the sequence GGCCAGAUUACUCACCUAUTT against Birc3, the z-score was inactive: -0.177.

Take GCCUAUGGCUGGUCAGUGUTT against Serpina3h: the z-score is inactive: -0.514.

Turning to CCCGGUACUAUAAUGCCAATT against Zmynd19, the z-score is inactive: -0.0599.

Consider GCGAACAACCACGUUUUUCTT against Ddx18, for which the z-score was inactive: 0.388.

As to GGGAAGCAUGCAGAACAGCTT against Parg, the z-score is inactive: -1.42.

With GGGCUGUGGAAACAAUUUATT against Zpld1, the z-score is active: 2.32.

The values above are taken from PubChem BioAssay AID1508600 (Functional Genomics Laboratory (NCATS/FGL), 2020).
